{"source": "PubChem BioAssay AID595", "about": "(National Center for Advancing Translational Sciences (NCATS), 2007)", "note": "Where “and” joins values, the source holds several entries; their conditions need not be identical. Equal entries are not always repeated. Hit rate of the full screen: of about 71,000 compounds, about 310 (0.44%) were called active. Inconclusive means that the source gave no clear call. Such entries were picked first, then a sample of the others. The call rests on the fitted dose curve; in most records, active means well fitted curve in either direction with a large enough effect; inconclusive means small, poorly fitted or top-dose-only effect, or another doubt; inactive means flat fitted curve, though single readings scatter. Potencies beside an inconclusive call are fits to weak or partial responses and may not hold up. On the % scale 0 is the no-effect control and ±100 the full control effect; potency means the concentration at half of the fitted maximal effect."}
{"tested_on": "Hsp90 C-terminal peptide / TPR2A (Hop) interaction, human", "test": "qHTS Assay for Disrupters of an Hsp90 Co-Chaperone Interaction", "settings": "AlphaScreen TPR2A-His6 binding biotin-Hsp90 C-terminal peptide; activity change, negative = inhibition: at 57 µM (top of the series) unless noted"}
{"smiles": "CC1CCCCN1C(=O)c1cnn2c(C(F)(F)F)cc(-c3ccco3)nc12", "note": "(stereo not drawn)", "activity change, negative = inhibition": "inactive: 0.125%"}
{"smiles": "O=C(Nc1nsc(-c2ccccc2)n1)c1cccs1", "activity change, negative = inhibition": "inactive: -2.66%"}
{"smiles": "Cc1csc(NC(=O)CCc2nc3ccccc3s2)n1", "activity change, negative = inhibition": "inconclusive: 30.2%"}
{"smiles": "CN(Cc1ccccc1)Cc1nc2c(c(=O)n(C)c(=O)n2C)n1CCc1ccccc1", "activity change, negative = inhibition": "inactive: -2%"}
{"smiles": "Cc1cc2c(cc1C)NC1=C(N2)O[C@H](c2c[nH]c3ccc(COc4ccccc4)cc23)C1=O", "activity change, negative = inhibition": "inconclusive: 86.9% [at 11 µM]"}
{"smiles": "CCOC(=O)c1sc(NC(=O)CSc2nc(-c3ccco3)cc(C(F)(F)F)n2)c(C#N)c1C", "activity change, negative = inhibition": "inactive: 3.72%"}
{"smiles": "O=C(O)CSc1nnc(C2COc3ccccc3O2)n1-c1ccccc1", "note": "(stereo not drawn)", "activity change, negative = inhibition": "inconclusive: 39.1%"}
{"smiles": "N#Cc1nc(Cc2ccccc2)oc1N1CCC(Cc2ccccc2)CC1", "Potency": "inconclusive: 15.8 µM [inhibitor, partial curve]"}
{"smiles": "COc1ccccc1CC1(C)NC(=O)N(CC(=O)Nc2cc(C)on2)C1=O", "note": "(stereo not drawn)", "activity change, negative = inhibition": "inconclusive: 32.8%"}
{"smiles": "O=C(CSc1ncc(-c2ccccc2)n1-c1ccccc1)NCc1ccco1", "Potency": "inconclusive: 15.8 µM [inhibitor, partial curve]"}
{"smiles": "COc1ccc(C(=O)N=c2nc3ccccn3s2)cc1", "activity change, negative = inhibition": "inactive: -1.84%"}
{"smiles": "N#CC1=C(N)N(c2ccccc2C#N)C2=C(C(=O)CCC2)C1c1ccsc1", "note": "(stereo not drawn)", "Potency": "inconclusive: 25.1 µM [inhibitor, partial curve]"}
{"smiles": "O=c1[nH]cc(CS(=O)(=O)Cc2c[nH]c(=O)[nH]c2=O)c(=O)[nH]1", "activity change, negative = inhibition": "inactive: -2.27% [at 11 µM]"}
{"smiles": "COC(=O)C1=C(N)Oc2cc(N(C)C)ccc2C1c1ccccc1OC", "note": "(stereo not drawn)", "Potency": "inconclusive: 15.8 µM [inhibitor, partial curve]"}
{"smiles": "Nc1ccccc1C(=O)C[C@@H](N)C(=O)O", "activity change, negative = inhibition": "inconclusive: 66.7%"}
{"smiles": "COC(=O)[C@@H]1[C@@H]2C[C@H]3c4[nH]c5cc(OC)ccc5c4CCN3C[C@@H]2C[C@H](OC(=O)/C=C\\c2cc(OC)c(OC)c(OC)c2)[C@H]1OC", "Potency": "inconclusive: 15.8 µM [inhibitor, partial curve]"}
{"smiles": "O=C(Nn1cc(C(=O)N2CCN(c3ccccc3F)CC2)c2ccccc2c1=O)c1cnccn1", "Potency": "active: 3.98 µM"}
{"smiles": "Fc1ccccc1OCCSc1nc2ccccc2o1", "Potency": "inconclusive: 31.6 µM [activator, single point]"}
{"smiles": "O=C1c2ccccc2-c2ccc(N=[N+]([O-])c3ccc4c(c3)C(=O)c3ccccc3-4)cc21", "activity change, negative = inhibition": "inactive: -0.99% [at 11 µM]"}
{"smiles": "CS(=O)(=O)N1CCC2(CCN(C(c3ccccc3)c3ccccc3)CC2)CC1", "activity change, negative = inhibition": "inactive: -9%"}
{"smiles": "CCN=C(NCC)SC1CC(=O)N(c2ccccc2)C1=O", "note": "(stereo not drawn)", "activity change, negative = inhibition": "inconclusive: 47.1%"}
{"smiles": "CCCSc1ccc2nc(NC(=O)OC)[nH]c2c1", "activity change, negative = inhibition": "inactive: -6.76% [at 26 µM]"}
{"smiles": "COC(=O)C1=C(C)Nc2nc(-c3ccccc3)nn2C1c1ccc(C)o1", "note": "(stereo not drawn)", "activity change, negative = inhibition": "inconclusive: 18.6%"}
{"smiles": "CCn1c2ccccc2c2nnc(SCc3ccc(C(=O)OC)o3)nc21", "activity change, negative = inhibition": "inconclusive: 39%"}
{"smiles": "COc1cc2c(cc1OC)C(Cc1ccc(O)cc1)N(C)CC2", "note": "(stereo not drawn)", "activity change, negative = inhibition": "inconclusive: 40.4%"}
{"smiles": "CCn1c2ccccc2c2cc(NC(=O)Cc3ccc(S(=O)(=O)N4CCOCC4)s3)ccc21", "activity change, negative = inhibition": "inactive: -23.9%"}
{"smiles": "O=C(CSc1nc2ccccc2c(=O)n1Cc1ccco1)NCc1ccccc1", "activity change, negative = inhibition": "inconclusive: 46.6%"}
{"smiles": "COc1ccc2c(C)nc(Nc3nc(C)cc(=O)[nH]3)nc2c1", "activity change, negative = inhibition": "inactive: -8.36%"}
{"smiles": "CCOC(=O)N1CCC(NC(=O)c2cc3c(-c4ccc(OC)c(OC)c4)nn(C)c3s2)CC1", "activity change, negative = inhibition": "inconclusive: 55.2%"}
{"smiles": "CN(c1ccccc1C(N)=O)S(=O)(=O)c1ccccc1", "activity change, negative = inhibition": "inconclusive: 40.1%"}
{"smiles": "Cc1cc(N)c2ccccc2[n+]1CCCCCCCCCC[n+]1c(C)cc(N)c2ccccc21", "Potency": "inconclusive: 15.8 µM [inhibitor, partial curve]"}
{"smiles": "Clc1ccccc1-c1nc(-c2cccnc2)no1", "activity change, negative = inhibition": "inactive: 7.11%"}
{"smiles": "COc1ccc(N2CCN(c3oc(COc4ccc(Cl)cc4Cl)nc3C#N)CC2)cc1", "Potency": "inconclusive: 25.1 µM [inhibitor, partial curve]"}
{"smiles": "COc1ccc2nc(SCC(=O)Nc3ccc4c(c3)OCCO4)[nH]c2c1", "activity change, negative = inhibition": "inconclusive: 27.4%"}
{"smiles": "CCC1(C)Cc2c(sc3nc(SCC(=O)O)[nH]c(=O)c23)CO1", "note": "(stereo not drawn)", "activity change, negative = inhibition": "inconclusive: 53.6%"}
{"smiles": "CN1CCN(c2ncc3nc(-c4ccc(F)cc4)c(=O)n(C4CC4)c3n2)CC1", "activity change, negative = inhibition": "inactive: -1.22%"}
{"smiles": "Cc1ccccc1N=C1Nc2ccccc2CS1", "activity change, negative = inhibition": "inactive: -1.61%"}
{"smiles": "Nc1nnc(SCC(=O)N2CCN(c3ccccc3)CC2)n1-c1ccccc1", "activity change, negative = inhibition": "inconclusive: 38.9%"}
{"smiles": "CCCCOc1ccc(-c2nnn(C(C)C(=O)OCC)n2)cc1", "note": "(stereo not drawn)", "Potency": "inconclusive: 31.6 µM [activator, single point]"}
{"smiles": "COc1ccc(O)c(/C=c2/sc3nc4cc(C)c(C)cc4n3c2=O)c1", "activity change, negative = inhibition": "inactive: -0.607%"}
{"smiles": "O=C1c2sc3nc4ccccc4n3c2C(=O)N1c1ccccc1Cl", "activity change, negative = inhibition": "inactive: -0.882%"}
{"smiles": "Cc1cc(C)n(-c2nc3c(c(=O)n(Cc4ccc(Cl)c(Cl)c4)c(=O)n3C)n2C)n1", "activity change, negative = inhibition": "inconclusive: 42.6%"}
{"smiles": "Cc1nnc(NC(=O)c2ccco2)s1", "activity change, negative = inhibition": "inactive: -2.34%"}
{"smiles": "COc1ccc(OC)c(Nc2nc(-c3cccs3)cs2)c1", "activity change, negative = inhibition": "inactive: -12.9%"}
{"smiles": "CCOc1ccc(C2C(C#N)=C(N)SC(N)=C2C#N)c(OCC)c1", "activity change, negative = inhibition": "inactive: -8.05%"}
{"smiles": "Cc1cc(C)n(-c2nc(C)nc(N)n2)n1", "activity change, negative = inhibition": "inactive: -0.348%"}
{"smiles": "O=C1C(SCCO)=C(SCCO)C(=O)c2ccccc21", "activity change, negative = inhibition": "inconclusive: 30.5%"}
{"smiles": "N#Cc1nc(COc2ccccc2)oc1N1CCN(Cc2ccccc2)CC1", "Potency": "inconclusive: 20 µM [inhibitor, partial curve]"}
{"smiles": "CC(C)CNc1nc(Oc2ccc(=O)n(C)n2)nc(N2CCOCC2)n1", "activity change, negative = inhibition": "inconclusive: 42.4%"}
{"smiles": "Cc1c(C(=O)NCc2cccnc2)oc2ccccc12", "activity change, negative = inhibition": "inconclusive: 50.9%"}
{"smiles": "C=CC1=C(C)C2=NC1=CC1=NC(=CC3=NC(=CC4=NC(=C2)C(C)=C4CCC(=O)O)C(CCC(=O)O)=C3C)C(C=C)=C1C.[Zn]", "Potency": "active: 5.01 µM"}
{"smiles": "Cc1ccc(-c2cc(C(F)(F)F)n3ncc(C(=O)N4CCN(C)CC4)c3n2)cc1", "activity change, negative = inhibition": "inactive: -2.79% [at 11 µM]"}
{"smiles": "CC1CCN(C(=O)C2CCN(CCCc3ccccc3)CC2)CC1", "activity change, negative = inhibition": "inconclusive: 73.5%"}
{"smiles": "O=C(CSc1nc2ccc(S(=O)(=O)N3CCOCC3)cc2[nH]1)N1CCOCC1", "activity change, negative = inhibition": "inactive: 2.27%"}
{"smiles": "O=C(CSc1nnc(-c2cc3ccccc3cc2O)n1Cc1ccco1)c1ccc(F)cc1", "activity change, negative = inhibition": "inconclusive: 16%"}
{"smiles": "CCCCc1c(C(=O)O)cc(OC)cc1C(=O)O", "activity change, negative = inhibition": "inconclusive: 38.2%"}
{"smiles": "Cn1c(=O)[nH]c(=O)c2c1nc(N1CCCCC1)n2CCCSc1nc2ccccc2s1", "activity change, negative = inhibition": "inconclusive: 12.3%"}
{"smiles": "Cn1cc(-c2nc3cncnc3n(Cc3ccc(F)cc3)c2=O)c2ccccc21", "activity change, negative = inhibition": "inconclusive: 120%"}
{"smiles": "CCN(c1ccccc1)S(=O)(=O)c1ccc(C(=O)Nc2nnc(COC)o2)cc1", "Potency": "inconclusive: 39.8 µM [inhibitor, single point]"}
{"smiles": "COc1cccc(Nc2ncc3nc(-c4ccc(Cl)cc4)c(=O)n(CCC#N)c3n2)c1", "activity change, negative = inhibition": "inactive: -5.22%"}
{"smiles": "Cc1cccc(NC(=O)Nc2cccc(F)c2)n1", "activity change, negative = inhibition": "inconclusive: 41.9%"}
{"smiles": "COc1cccc(N=Cc2ccc(O)cc2O)c1", "activity change, negative = inhibition": "inactive: -2.61%"}
{"smiles": "CC1CCN(S(=O)(=O)c2cc(Cl)ccc2Br)CC1", "Potency": "inconclusive: 25.1 µM [activator, single point]"}
{"smiles": "CN(Cc1ccccc1)C(=O)c1cc(-c2ccc(Br)cc2)on1", "Potency": "inconclusive: 20 µM [activator, single point]"}
{"smiles": "CCOc1cc2[nH]c(=O)n(CCCCC(=O)NC3CCCCC3)c(=O)c2cc1OCC", "activity change, negative = inhibition": "inconclusive: 62.4%"}
{"smiles": "CS(=O)(=O)Nc1cccc(-c2cncnc2-n2ccnc2)c1", "activity change, negative = inhibition": "inactive: 9.3%"}
{"smiles": "CCOc1ccccc1C(=O)N(CN1CCCC1=O)c1cccc(Cl)c1", "activity change, negative = inhibition": "inconclusive: 49.2%"}
{"smiles": "Cc1cc(C)n2cc(CSc3nnc(-c4ccccc4)o3)nc2n1", "activity change, negative = inhibition": "inactive: -2.93%"}
{"smiles": "O=C1C2C3CCCC3=C3CCCC3C2C(=O)N1c1ccc(Cl)cc1", "note": "(stereo not drawn)", "activity change, negative = inhibition": "inactive: -8.77%"}
{"smiles": "CCOC(=O)N1CCC(NC(=O)c2ccc3c(c2)N(CC)CCS3)CC1", "activity change, negative = inhibition": "inconclusive: 48.4%"}
{"smiles": "CCOC(=O)Cc1nnc(NC(=O)c2ncn[nH]2)s1", "Potency": "inconclusive: 20 µM [inhibitor, partial curve]"}
{"smiles": "Oc1ccc(CNc2ccccc2F)c2cccnc12", "Potency": "active: 5.01 µM"}
{"smiles": "COc1cccc(Cn2c(=O)cnc3cnc(N(C)C)nc32)c1", "activity change, negative = inhibition": "inactive: -2.63%"}
{"smiles": "CN(C)CCNC(=O)c1cc2c(=O)n(C)c3ccccc3c2n1C", "activity change, negative = inhibition": "inactive: -1.39% [at 2.3 µM]"}
{"smiles": "CN(C(=O)c1ccc(Cl)cc1)C1=CCCCC1CCC#N", "note": "(stereo not drawn)", "activity change, negative = inhibition": "inconclusive: 53.3%"}
{"smiles": "COC(=O)c1onc(C(=O)c2ccccc2)c1C(=O)OC", "activity change, negative = inhibition": "inconclusive: 49%"}
{"smiles": "Cc1ccc(NC(=O)CSCC(N)=O)cc1C", "Potency": "inconclusive: 25.1 µM [inhibitor, partial curve]"}
{"smiles": "Cc1ccc2cc(C#N)c(N3CCCN(S(=O)(=O)c4ccccc4)CC3)nc2c1", "Potency": "inconclusive: 25.1 µM [activator, partial curve]"}
{"smiles": "CC(=O)N1CCN(c2ccc(NCc3ccc(C(C)C)cc3)cc2)CC1", "Potency": "inconclusive: 20 µM [inhibitor, single point]"}
{"smiles": "CCOCC(=O)NCc1ccc2c(c1)OCO2", "activity change, negative = inhibition": "inconclusive: 54.2%"}
{"smiles": "Cc1cc(O)c2c(c1)C(=O)c1cc(O)cc(O)c1C2=O", "Potency": "inconclusive: 12.6 µM [inhibitor, partial curve] and active: 5.01 µM and inconclusive: 31.6 µM [inhibitor, partial curve]"}
{"smiles": "COc1ccc(N2CC(O)=C(c3nc4ccccc4s3)C2=N)c(OC)c1", "activity change, negative = inhibition": "inconclusive: 41.6%"}
